# Source: PubChem BioAssay AID540336 (Broad Institute, 2011)
# The chains behind the UniProt entries cited, without tags or fusion partners.
# UniProt Q5AAJ8, whole entry, looked up: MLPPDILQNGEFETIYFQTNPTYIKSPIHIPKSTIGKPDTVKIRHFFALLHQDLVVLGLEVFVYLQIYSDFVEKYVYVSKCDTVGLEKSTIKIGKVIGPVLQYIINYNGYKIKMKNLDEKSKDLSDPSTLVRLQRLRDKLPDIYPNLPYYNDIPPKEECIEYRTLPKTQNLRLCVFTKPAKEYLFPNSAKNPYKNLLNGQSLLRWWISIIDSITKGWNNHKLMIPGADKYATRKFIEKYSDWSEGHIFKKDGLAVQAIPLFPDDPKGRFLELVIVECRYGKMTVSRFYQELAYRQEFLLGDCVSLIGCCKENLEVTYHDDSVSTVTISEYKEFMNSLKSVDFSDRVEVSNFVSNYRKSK
# Among all 330,000 compounds or so, about 520 (0.16%) were called active. Inconclusive results, whose numbers are uncertain, are shown with a selection of clear calls.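 Rule for the calls: active = inhibition of at least 50% in every replicate; inconclusive = best replicate reaches 50% inhibition but some replicates fall short; inactive = the rest.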
# Biological target: Histone acetyltransferase RTT109 (Candida albicans (strain SC5314 / ATCC MYA-2876)) (UniProt Q5AAJ8)
# Experiment: Rtt109-Vps75 histone acetyltransferase blockade – biochemical, ThioGlo CoA-SH fluorescence, plate reader, primary screen (AID 540336)
# Conditions: purified Rtt109/Vps75, ThioGlo CoA-SH fluorescence, 4 h; at 34.9 µM; hits give high values
row,Compound,inhibition
1,CC1CCC2(CC1)NC(=O)N(NC(=O)c1cccc(N(C)C)c1)C2=O (centres undefined),inconclusive: 19.3%
2,CCN(CC(=O)Nc1ccc(OC)cc1)C(=O)c1cc(S(=O)(=O)N(C)C)ccc1N1CCCC1,inconclusive: 34.9%
3,COc1ccc(S(=O)(=O)N(C)C[C@H]2Oc3c(NC(=O)Nc4c(C)noc4C)cccc3C(=O)N([C@H](C)CO)C[C@@H]2C)cc1,inactive: -1.78%
4,OCCCCNc1cccc2ccccc12,inconclusive: 29.9%
5,CCN(CC)CCOC(=O)C12CC3CC(CC(C3)C1)C2,inconclusive: 33.9%
6,CCCCCC[N+](C)(C)CC/C=C1/c2ccccc2Sc2ccc(Cl)cc21,active: 73.4%
7,CC1CCC(C(C)C)C(OC(=O)C[n+]2cc(-c3ccc(Cl)cc3)n3c2CCCCC3)C1 (centres undefined),inconclusive: 24.5%
8,Cc1ccc(C(=O)c2c3ccc(C(F)(F)F)cc3[n+]([O-])n2CCCN)cc1,inactive: -3.07%
9,O=c1c2ccccc2nc(-c2ccccc2)n1Cc1ccc(Cl)cc1,inconclusive: 44.2%
10,CCOc1ccc(C(=O)CC(NCc2cccs2)C(=O)O)cc1 (centres undefined),inconclusive: 24.7%
11,CCCCn1c(N)c(N(CCOC)C(=O)CN(C)S(=O)(=O)c2ccc(C)cc2)c(=O)[nH]c1=O,inconclusive: 27.3%
12,CCOC(=O)c1c(C)n(C)c2ccc(O)c(CN3CCC(C)CC3)c12,inconclusive: 43.6%
13,CCN1/C(=C/C(C)=C/c2sc3ccccc3[n+]2CC)Sc2ccccc21,active: 134%
14,O=c1ccc2c([nH]1)CCCCCCCCCC2,inactive: 6.76%
15,O=C1CC(=O)N(CCc2ccc(F)cc2)C(=O)N1,inconclusive: 27.4%
16,CCCN(C(=O)COc1ccc(C(C)=O)cc1OC)C1CCS(=O)(=O)C1 (centres undefined),inactive: 0.491%
17,NC(=O)[C@H]1CC2(CC(c3cccc(NC(=O)COc4ccc(Cl)cc4)c3)=NO2)CN1C(=O)C(c1ccccc1)c1ccccc1 (some centres undefined),inactive: -3.18%
18,O=c1c2ccccc2nnn1CSc1nc2ccccc2c(=O)n1CCCO,inactive: 2.49%
19,CCc1ccc(NC(=O)CSc2nnc(C)c(=O)n2N)cc1,inactive: 17.7%
20,O=C(COC(=O)c1ccccc1-n1cnnn1)c1ccccc1,inactive: -7.51%
21,N#C/C(C(=O)Nc1ccc(Cl)cc1)=C(/S)Nc1ccccc1,inconclusive: 39.4%

# Shown as tab-separated lines: entries from further up
row	Compound	inhibition
8	Cc1ccc(C(=O)c2c3ccc(C(F)(F)F)cc3[n+]([O-])n2CCCN)cc1	inactive: -3.07%
9	O=c1c2ccccc2nc(-c2ccccc2)n1Cc1ccc(Cl)cc1	inconclusive: 44.2%

# (next part)

row,Compound,inhibition
1,O=C(CSc1nncc2ccccc12)Nc1ccc(C(=O)O)cc1,inconclusive: 63.4%
2,CN(c1ccc(C(=O)Nc2ccc3c(c2)OCO3)cc1)S(C)(=O)=O,active: 51%
3,O=C(N/C(=C\c1cccc(Br)c1)C(=O)N1CCOCC1)c1ccco1,inactive: 10%
4,Cc1cccc2sc(N(CCCN(C)C)C(=O)c3ccc(Cl)s3)nc12,inactive: 5.11%
5,CCCN(CCC)S(=O)(=O)c1ccc(NC(=O)Cc2cccs2)cc1,inconclusive: 37.1%
6,COc1ccc(C(=O)CCS(=O)(=O)c2ccc(F)cc2)cc1OC,inconclusive: 67.2%
7,CCCN(C(=O)c1c(-c2ccccc2)noc1C)c1c(N)n(Cc2ccccc2)c(=O)[nH]c1=O,inconclusive: 21.1%
8,CCCCCN=C(N)N/N=C/c1c[nH]c2ccc(OC)cc12,active: 77.6%
9,COc1ccc(-c2csc(N3C(=N)SCC3=O)n2)cc1,inactive: 16.4%
10,COc1ccc(OC)c(S(=O)(=O)N2CCC3(CC2)OCCN3S(=O)(=O)c2cccs2)c1,inconclusive: 41.3%
11,C#CCOCCOCCOCCNc1nc(N2CCN(C(=O)CCCCCCCCCCNC(=O)Cn3cc(CCCCCN)nn3)CC2)nc(N2CCN(C(=O)CCCCCCCCCCNC(=O)Cn3cc(CCCCCN)nn3)CC2)n1,inconclusive: 32.7%
12,Cc1ccc(CN2CCN(CC(=O)NCc3ccccc3)CC2)cc1,active: 53.2%
13,CC1CCC2(CC1)NC(=S)N(c1ccccc1)N2 (centres undefined),active: 95.1%
14,O=C(Nc1ccccc1)c1ccccc1CSc1ccccc1,inactive: -19.2%
15,CCC[C@@H](CN1CCC[C@H]1CN1C(N)=NC[C@@H]1Cc1ccccc1)N1C[C@@H]([C@H](C)CC)N(CCc2ccc(Cl)c(Cl)c2)C1=N,inconclusive: 47.9%
16,Cc1cccc(CSc2nc(N)c(C#N)c(-c3cccs3)c2C#N)c1,inactive: 5.99%
17,CCCNC(=O)C(Cc1ccccc1)NC(=O)c1ccccc1 (centres undefined),inactive: -4.82%
18,Cc1cccc(N2C(S)=C(C#N)C(=O)NC2c2cccs2)c1 (centres undefined),active: 121%
19,Cc1ccc(S(=O)(=O)N(C)c2ccc(OCC(=O)N3CCCCC3)cc2)cc1,inactive: -0.516%
20,Cc1nc2c(-c3ccc(F)cc3)c(C)nn2c(C)c1CCC(=O)Nc1ccccc1,inconclusive: 26.9%
21,CN(C)CCN(Cc1ccco1)S(=O)(=O)c1ccc(-c2ccc(=O)[nH]n2)s1,inconclusive: 53.7%

row,Compound,inhibition
1,COC(=O)c1cccc(NC(=O)CCCOc2ccccc2)c1,inconclusive: 35.8%
2,COc1ccc(CCNC(=O)c2cc3c(=O)n4ccccc4nc3n(C3CCCCC3)c2=N)cc1OC,inconclusive: 48.6%
3,COc1ccc(Cn2c(O)cc(=O)[nH]c2=O)cc1,inactive: -0.271%
4,CCOC(=O)c1c(C)[nH]c(C(=O)COC(=O)CCC2CCCC2)c1C,inconclusive: 27.1%
5,Cc1ccc(-c2nc3n(n2)Cc2ccccc2-3)cc1,inactive: -5.64%
6,O=S(=O)(c1ccc(Cl)cc1)N1CCN(c2ncccn2)CC1,active: 64.3%
7,CCn1c(SCCOc2ccc(Cl)cc2)nnc1-c1cccs1,inconclusive: 37.6%
8,CCCCS(=O)(=O)c1sc2nc(C)cc(C)c2c1N,active: 54.9%
9,CN(C)c1ccc(N=Nc2ccccc2C(=O)OCC(=O)N2CCCC2)cc1,inconclusive: 42.7%
10,O=C(NNC(=S)NC1CC2C=CC1C2)c1cccnc1 (centres undefined),inconclusive: 38.2%
11,COc1ccc(C(=O)CCN2CCN(c3ccccc3OC)CC2)cc1,inconclusive: 26.2%
12,CC(C(=O)Nc1ccc(O)c(C(=O)O)c1)N1C(=O)/C(=C/c2cccs2)SC1=S (centres undefined),active: 81.1%
13,COc1ccc(N2CCN(C(=O)CCCC(=O)c3ccccc3)CC2)cc1,inactive: -0.447%
14,CC1Cc2ccccc2N1C(=O)c1ccc(N2CCCC2)c([N+](=O)[O-])c1 (centres undefined),active: 57.5%
15,CCOc1ccc2ccccc2c1/C=N/NC(=O)c1ccncc1,inactive: 5.38%
16,N#CC1=C2SCN(c3ccccc3)CN2C(=O)CC1c1c(Cl)cccc1Cl (centres undefined),inconclusive: 85.2%
17,Cc1cc(C(=O)O)ccc1-n1c(C)cc(C=C2C(=O)c3ccccc3C2=O)c1C,inconclusive: 60.2%
18,COc1ccc2nc(SCC(=O)C(C)(C)C)[nH]c2c1,inactive: 3.37%
19,O=C(NCC1CCCO1)C1CCN(C2CCN(Cc3cccs3)CC2)CC1 (centres undefined),inactive: -0.925%
20,CC(C)(C)NC(=S)NC(C)(C)C,inactive: 6.99%
21,COC(=O)C1=C(C)C(c2cccs2)NC(=O)N1C (centres undefined),inconclusive: 33.2%

row,Compound,inhibition
1,O=C(CSc1n[nH]c(-c2ccncc2)n1)Nc1ccc(Cl)c(Cl)c1,inconclusive: 26%
2,O=C(Nc1ccccc1)c1ccccc1NC(=O)c1ccccc1[N+](=O)[O-],active: 50.5%
3,COc1ccc(S(=O)(=O)N2CCN(c3ccccn3)CC2)cc1OC,active: 53.1%
4,COc1ccccc1-n1cnnc1SCC(=O)NC1CCCC1,inconclusive: 36.1%
5,NC(=O)Cn1c(=O)n(Cc2ccco2)c(=O)c2c3c(sc21)CCCCC3,inconclusive: 47.2%
6,Cc1nc(C(=O)Nc2ccc(F)cc2)nn1-c1ccc([N+](=O)[O-])cc1,inactive: -9.08%
7,Cc1cccc(-c2nnc3sc(-c4ccccc4C)nn23)c1,inconclusive: 25.8%
8,C#CCOCCOCCOCCNc1nc(N2CCN(C(=O)CCCCCCCCCCNC(=O)[C@H](CCCCN)n3cc(C[C@@H](C)CC)nn3)CC2)nc(N2CCN(C(=O)CCCCCCCCCCNC(=O)[C@H](CCCN=C(N)N)n3cc(C[C@@H](C)CC)nn3)CC2)n1,inconclusive: 43.5%
9,O=S(=O)(c1ccccc1)N1CCN(Cc2c(O)ccc3ccccc23)CC1,inactive: -3.69%
10,CCCn1nnc(NC(=O)Cc2ccc(Cl)cc2)n1,inconclusive: 32%
11,O=C(c1ccc2c(c1)[nH]c(=S)n1c3ccccc3nc21)N1CCN(c2ncccn2)CC1,inactive: -6.57%
12,CCn1c(COc2ccccc2)nnc1SCC(=O)NCc1ccco1,inconclusive: 20.3%
13,C=CCn1c(-c2cc(-c3ccc(C)cc3)nc3ccccc23)n[nH]c1=S,inconclusive: 53.3%
14,CC(=O)Nc1ccc(Nc2ncnc3c2nnn3Cc2ccccc2Cl)cc1,inconclusive: 24.3%
15,O=c1[nH]c2cc3c(cc2cc1CN(CCc1ccccc1)Cc1nnnn1CC1CCCO1)OCO3 (centres undefined),inconclusive: 11.2%
16,CCOc1ccc(NC(=O)CSc2nccn(-c3ccc4c(c3)OCCO4)c2=O)cc1,inconclusive: 43%
17,CC(C)(C)c1ccc(Cn2nnc3c(=O)[nH]c(C4CCCN(C(=O)c5ccco5)C4)nc32)cc1 (centres undefined),inconclusive: 57.7%
18,COc1ccc(Cn2c(=O)c3cccnc3n(Cc3ccc([N+](=O)[O-])cc3)c2=O)cc1,inconclusive: 27.5%
19,Nc1nonc1N/N=C/c1c(O)ccc2ccccc12,inconclusive: 32.8%
20,COc1ccc(CNCCC(c2ccc(F)cc2)c2ccc(OC(C)C)cc2)cc1OC (centres undefined),inconclusive: 50.7%
21,CC(CCC(C)C(C)(C)C)[C@@H]1CC[C@H]2C3C[C@H](OS(O)(=S)=S)[C@H]4C[C@H](OS(O)(=S)=S)[C@@H](OS(O)(=S)=S)C[C@]4(C)[C@H]3CC[C@]12C (some centres undefined) (tested in a mixture with another compound),inconclusive: 47.8%

# Single entries from the list.
# C#CCOCCOCCOCCNc1nc(N2CCN(C(=O)CCCCCCCCCCNC(=O)[C@H](CCCCN)n3cc(C[C@@H](C)CC)nn3)CC2)nc(N2CCN(C(=O)CCCCCCCCCCNC(=O)[C@H](CCCN=C(N)N)n3cc(C[C@@H](C)CC)nn3)CC2)n1 | inhibition: inconclusive: 43.5%
# CC(=O)Nc1ccc(Nc2ncnc3c2nnn3Cc2ccccc2Cl)cc1 | inhibition: inconclusive: 24.3%
# Cc1cccc(-c2nnc3sc(-c4ccccc4C)nn23)c1 | inhibition: inconclusive: 25.8%
